From publication PMC9161502
Results are given in words; binding and its absence hold for the method and conditions named. Binding seen in cells or lysates may run through a third protein. Binding calls can cover weak binding; strength is not graded here.

Target: T1, POGZ (in 293 T cells) (UniProt Q8BZH4)
T1 sequence: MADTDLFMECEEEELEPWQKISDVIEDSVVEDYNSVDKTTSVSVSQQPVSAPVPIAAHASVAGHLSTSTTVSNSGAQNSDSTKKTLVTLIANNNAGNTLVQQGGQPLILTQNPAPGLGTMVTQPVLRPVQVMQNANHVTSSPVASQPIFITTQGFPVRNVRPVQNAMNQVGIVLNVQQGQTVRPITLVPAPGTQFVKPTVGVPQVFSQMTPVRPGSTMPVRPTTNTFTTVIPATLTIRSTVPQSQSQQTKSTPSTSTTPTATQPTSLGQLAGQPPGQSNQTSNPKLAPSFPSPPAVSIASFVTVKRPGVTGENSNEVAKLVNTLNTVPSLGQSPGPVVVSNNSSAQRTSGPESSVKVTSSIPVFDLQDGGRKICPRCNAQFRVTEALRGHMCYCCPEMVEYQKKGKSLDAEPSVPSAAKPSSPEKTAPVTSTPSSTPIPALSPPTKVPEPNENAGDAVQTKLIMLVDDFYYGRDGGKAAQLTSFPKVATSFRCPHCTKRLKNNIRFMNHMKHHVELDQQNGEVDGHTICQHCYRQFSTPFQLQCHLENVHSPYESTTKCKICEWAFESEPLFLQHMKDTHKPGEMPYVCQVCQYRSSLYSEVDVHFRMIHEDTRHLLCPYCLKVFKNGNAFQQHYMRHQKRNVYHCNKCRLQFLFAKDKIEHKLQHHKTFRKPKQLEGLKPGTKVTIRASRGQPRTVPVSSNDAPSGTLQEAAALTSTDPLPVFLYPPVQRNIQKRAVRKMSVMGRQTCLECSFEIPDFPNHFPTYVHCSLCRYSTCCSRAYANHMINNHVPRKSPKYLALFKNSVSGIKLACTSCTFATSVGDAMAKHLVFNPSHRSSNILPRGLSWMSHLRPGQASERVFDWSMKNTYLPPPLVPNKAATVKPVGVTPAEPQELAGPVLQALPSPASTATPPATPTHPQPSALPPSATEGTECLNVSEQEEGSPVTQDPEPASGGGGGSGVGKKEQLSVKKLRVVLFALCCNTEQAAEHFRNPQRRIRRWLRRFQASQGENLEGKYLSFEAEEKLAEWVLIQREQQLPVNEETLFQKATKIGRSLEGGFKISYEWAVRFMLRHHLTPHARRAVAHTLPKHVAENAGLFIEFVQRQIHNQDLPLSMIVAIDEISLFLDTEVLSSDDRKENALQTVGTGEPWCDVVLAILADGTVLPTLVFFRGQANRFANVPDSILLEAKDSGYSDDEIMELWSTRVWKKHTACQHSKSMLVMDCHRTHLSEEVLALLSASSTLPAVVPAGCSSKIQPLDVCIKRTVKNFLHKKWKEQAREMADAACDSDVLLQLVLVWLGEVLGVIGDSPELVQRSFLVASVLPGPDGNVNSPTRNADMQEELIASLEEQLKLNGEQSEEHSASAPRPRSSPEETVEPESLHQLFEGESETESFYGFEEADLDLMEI
Assay: co-IP; tagged constructs in 293 T cells; total cell lysate with antibody-conjugated Dynabeads Protein G (anti-POGZ, anti-FLAG or anti-HA) overnight at 4 °C; Western blot

With “FLAG-tagged C-terminal fragment of BRG1 (in 293 T cells) (domain or fragment)” the binding was “binds”.
